Reference: PubChem BioAssay AID1224830 (NIAID, 2016)
Purpose: 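Genes whose knock-down alters the TNF-alpha reporter response to LPS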 (primary screen). Cell system: human THP-1 monocytic leukaemia cells, TNF dual-luciferase reporter clone, PMA-differentiated to macrophage-like cells. Reagents: siRNA pool against human genes, 50 nM. Duration: LPS for 4 h, given about 3 days after siRNA transfection. Conditions: bacterial LPS (TLR4 ligand), 10 ng/ml. Detection: 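Ratio of firefly to renilla light, scaled to the plate median and expressed as a robust z-score per replicate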. Direction: TNF reporter robust z-score: higher = stronger TNF reporter response to LPS. Active means: 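a well is active when its z-score exceeds 2.8 or falls below -1.5; control wells carry no call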.
The deposit covers about 18,000 reagents; below is a part drawn at random. About 2,900 of all reagents (16%) were called active. 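Calls are made per well; low scores hint the gene aids the LPS response, high scores that it dampens it.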 Repeated entries: four replicate wells of each siRNA pool.

Target gene | TNF reporter robust z-score | Outcome
PPM1H (protein phosphatase, Mg2+/Mn2+ dependent 1H) | -0.58 | inactive
PPM1H (protein phosphatase, Mg2+/Mn2+ dependent 1H) | -0.56 | inactive
PPM1H (protein phosphatase, Mg2+/Mn2+ dependent 1H) | -0.25 | inactive
PPM1H (protein phosphatase, Mg2+/Mn2+ dependent 1H) | -0.53 | inactive
PNPLA3 | -0.97 | inactive
PNPLA3 | -0.61 | inactive
PNPLA3 | -0.82 | inactive
PNPLA3 | -0.44 | inactive
ONECUT2 (one cut homeobox 2) | -0.18 | inactive
ONECUT2 (one cut homeobox 2) | -1.63 | active
ONECUT2 (one cut homeobox 2) | -1.85 | active
ONECUT2 (one cut homeobox 2) | -1.62 | active
GJA1 (gap junction protein alpha 1) | -1.09 | inactive
GJA1 (gap junction protein alpha 1) | 1.22 | inactive
GJA1 (gap junction protein alpha 1) | -0.32 | inactive
GJA1 (gap junction protein alpha 1) | 1.66 | inactive
TM4SF20 (transmembrane 4 L six family member 20) | -0.4 | inactive
TM4SF20 (transmembrane 4 L six family member 20) | 1.26 | inactive
TM4SF20 (transmembrane 4 L six family member 20) | -0.81 | inactive
TM4SF20 (transmembrane 4 L six family member 20) | -0.95 | inactive
NLRP4 (NLR family pyrin domain containing 4) | -0.43 | inactive
NLRP4 (NLR family pyrin domain containing 4) | 0.92 | inactive
NLRP4 (NLR family pyrin domain containing 4) | 0.44 | inactive
NLRP4 (NLR family pyrin domain containing 4) | -0.24 | inactive
ING4 (inhibitor of growth family member 4) | 0.86 | inactive
ING4 (inhibitor of growth family member 4) | 0.51 | inactive
ING4 (inhibitor of growth family member 4) | 1.55 | inactive
ING4 (inhibitor of growth family member 4) | 2.65 | inactive
LRRC37B (leucine rich repeat containing 37B) | -0.01 | inactive
LRRC37B (leucine rich repeat containing 37B) | 0.68 | inactive
LRRC37B (leucine rich repeat containing 37B) | 0.53 | inactive
LRRC37B (leucine rich repeat containing 37B) | 2.03 | inactive
ABCD4 (ATP binding cassette subfamily D member 4) | -0.22 | inactive
ABCD4 (ATP binding cassette subfamily D member 4) | -0.17 | inactive
ABCD4 (ATP binding cassette subfamily D member 4) | -0.05 | inactive
ABCD4 (ATP binding cassette subfamily D member 4) | -0.21 | inactive
MAGEB18 (MAGE family member B18) | -0.83 | inactive
MAGEB18 (MAGE family member B18) | -0.44 | inactive
MAGEB18 (MAGE family member B18) | -0.07 | inactive
MAGEB18 (MAGE family member B18) | -1.22 | inactive
PANX3 (pannexin 3) | -0.89 | inactive
PANX3 (pannexin 3) | -0.07 | inactive
PANX3 (pannexin 3) | -0.22 | inactive
PANX3 (pannexin 3) | -1.18 | inactive
ORM2 (orosomucoid 2) | 4.81 | active
ORM2 (orosomucoid 2) | 3.67 | active
ORM2 (orosomucoid 2) | 1.08 | inactive
ORM2 (orosomucoid 2) | 2.02 | inactive
KIR3DP1 | 1.44 | inactive
KIR3DP1 | 2.36 | inactive
KIR3DP1 | 1.67 | inactive
KIR3DP1 | -0.08 | inactive
COL1A2 (collagen type I alpha 2 chain) | -2.04 | active
COL1A2 (collagen type I alpha 2 chain) | -2.01 | active
COL1A2 (collagen type I alpha 2 chain) | -2 | active
COL1A2 (collagen type I alpha 2 chain) | -1.75 | active
PLEKHM1P1 | 1.68 | inactive
PLEKHM1P1 | 2.74 | inactive
PLEKHM1P1 | 4.55 | active
PLEKHM1P1 | 1.33 | inactive
SLITRK6 (SLIT and NTRK like family member 6) | -0.42 | inactive
SLITRK6 (SLIT and NTRK like family member 6) | 0.33 | inactive
SLITRK6 (SLIT and NTRK like family member 6) | 0.15 | inactive
SLITRK6 (SLIT and NTRK like family member 6) | 1.04 | inactive
OR2T35 | -1.48 | inactive
OR2T35 | -1.01 | inactive
OR2T35 | -0.98 | inactive
OR2T35 | -0.29 | inactive
ZNF575 (zinc finger protein 575) | 0.98 | inactive
ZNF575 (zinc finger protein 575) | 1.39 | inactive
ZNF575 (zinc finger protein 575) | 2.44 | inactive
ZNF575 (zinc finger protein 575) | 0.83 | inactive
TBX4 (T-box transcription factor 4) | 0.57 | inactive
TBX4 (T-box transcription factor 4) | 1.08 | inactive
TBX4 (T-box transcription factor 4) | 1.06 | inactive
TBX4 (T-box transcription factor 4) | 1.43 | inactive
POTEA (POTE ankyrin domain family member A (gene/pseudogene)) | -0.25 | inactive
POTEA (POTE ankyrin domain family member A (gene/pseudogene)) | 1.21 | inactive
POTEA (POTE ankyrin domain family member A (gene/pseudogene)) | 1.64 | inactive
POTEA (POTE ankyrin domain family member A (gene/pseudogene)) | 2.37 | inactive
CTSB (cathepsin B) | -0.4 | inactive
CTSB (cathepsin B) | -0.96 | inactive
CTSB (cathepsin B) | 0.01 | inactive
CTSB (cathepsin B) | 0.11 | inactive
OTP (orthopedia homeobox) | 2.26 | inactive
OTP (orthopedia homeobox) | 0.03 | inactive
OTP (orthopedia homeobox) | -0.61 | inactive
BCR (BCR activator of RhoGEF and GTPase) | 1.68 | inactive
BCR (BCR activator of RhoGEF and GTPase) | 1.61 | inactive
BCR (BCR activator of RhoGEF and GTPase) | 0.7 | inactive
BCR (BCR activator of RhoGEF and GTPase) | -0.5 | inactive
ANXA13 (annexin A13) | -0.09 | inactive
ANXA13 (annexin A13) | 0.75 | inactive
ANXA13 (annexin A13) | 0.89 | inactive
ANXA13 (annexin A13) | -0.6 | inactive
HEBP2 (heme binding protein 2) | – | inactive
HEBP2 (heme binding protein 2) | -0.33 | inactive
HEBP2 (heme binding protein 2) | -0.72 | inactive
HEBP2 (heme binding protein 2) | 0.33 | inactive
OR6B1 (olfactory receptor family 6 subfamily B member 1) | 1.55 | inactive
OR6B1 (olfactory receptor family 6 subfamily B member 1) | 1.45 | inactive
OR6B1 (olfactory receptor family 6 subfamily B member 1) | 2.41 | inactive
OR6B1 (olfactory receptor family 6 subfamily B member 1) | -1.25 | inactive
CHRNA6 (cholinergic receptor nicotinic alpha 6 subunit) | 0.94 | inactive
CHRNA6 (cholinergic receptor nicotinic alpha 6 subunit) | 0.16 | inactive
CHRNA6 (cholinergic receptor nicotinic alpha 6 subunit) | 0.28 | inactive
CHRNA6 (cholinergic receptor nicotinic alpha 6 subunit) | 0.69 | inactive
KIR2DS3 | -0.97 | inactive
KIR2DS3 | -1.01 | inactive
KIR2DS3 | -1.08 | inactive
DUSP4 (dual specificity phosphatase 4) | 0.25 | inactive
DUSP4 (dual specificity phosphatase 4) | 1.62 | inactive
DUSP4 (dual specificity phosphatase 4) | 0.14 | inactive
DUSP4 (dual specificity phosphatase 4) | 1.34 | inactive
ACSL6 (acyl-CoA synthetase long chain family member 6) | -0.5 | inactive
ACSL6 (acyl-CoA synthetase long chain family member 6) | -0.86 | inactive
ACSL6 (acyl-CoA synthetase long chain family member 6) | 0.1 | inactive
ACSL6 (acyl-CoA synthetase long chain family member 6) | 0.26 | inactive
ZNF136 (zinc finger protein 136) | -0.38 | inactive
ZNF136 (zinc finger protein 136) | 0.63 | inactive
ZNF136 (zinc finger protein 136) | 0.11 | inactive
ZNF136 (zinc finger protein 136) | 0.2 | inactive
TBC1D21 (TBC1 domain family member 21) | 0.61 | inactive
TBC1D21 (TBC1 domain family member 21) | 1.17 | inactive
TBC1D21 (TBC1 domain family member 21) | 1.01 | inactive
TBC1D21 (TBC1 domain family member 21) | 0.88 | inactive
LHFPL1 (LHFPL tetraspan subfamily member 1) | -0.54 | inactive
LHFPL1 (LHFPL tetraspan subfamily member 1) | 0.03 | inactive
LHFPL1 (LHFPL tetraspan subfamily member 1) | -0.55 | inactive
LHFPL1 (LHFPL tetraspan subfamily member 1) | -1.3 | inactive
GPC3 (glypican 3) | 0.35 | inactive
GPC3 (glypican 3) | 0.34 | inactive
GPC3 (glypican 3) | -0.02 | inactive
GPC3 (glypican 3) | 0.51 | inactive
POFUT4 (protein O-fucosyltransferase 4) | -0.68 | inactive
POFUT4 (protein O-fucosyltransferase 4) | -0.54 | inactive
POFUT4 (protein O-fucosyltransferase 4) | 0.19 | inactive
POFUT4 (protein O-fucosyltransferase 4) | -0.51 | inactive
TCN1 (transcobalamin 1) | -1.13 | inactive
TCN1 (transcobalamin 1) | -1.69 | active
TCN1 (transcobalamin 1) | -1.34 | inactive
TCN1 (transcobalamin 1) | -1.52 | active

13 entries already listed, sorted by “TNF reporter robust z-score”, low to high.
Target gene | TNF reporter robust z-score | Outcome
CTSB (cathepsin B) | -0.96 | inactive
OTP (orthopedia homeobox) | -0.61 | inactive
BCR (BCR activator of RhoGEF and GTPase) | -0.5 | inactive
CTSB (cathepsin B) | -0.4 | inactive
ANXA13 (annexin A13) | -0.09 | inactive
CTSB (cathepsin B) | 0.01 | inactive
OTP (orthopedia homeobox) | 0.03 | inactive
CTSB (cathepsin B) | 0.11 | inactive
BCR (BCR activator of RhoGEF and GTPase) | 0.7 | inactive
BCR (BCR activator of RhoGEF and GTPase) | 1.61 | inactive
BCR (BCR activator of RhoGEF and GTPase) | 1.68 | inactive
OTP (orthopedia homeobox) | 2.26 | inactive
POTEA (POTE ankyrin domain family member A (gene/pseudogene)) | 2.37 | inactive
